{"source": "PubChem BioAssay AID686943 – Drosophila RNAi Screening Center | 2013", "purpose": "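Search across the genome for regulators of signalling from receptor tyrosine kinase to ERK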 (primary screen)", "system": "Drosophila S2R+ haemocyte-like cells expressing YFP-tagged ERK (Rolled)", "knock-down reagent": "long dsRNA against Drosophila genes", "treatment": "insulin stimulation versus unstimulated cells; dose and duration not given", "detection": "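Antibody staining for doubly phosphorylated ERK divided by ERK-YFP signal, as plate z-scores, in insulin-treated and untreated cells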", "direction": "replicate 1, z-score of dpERK with insulin and replicate 2, z-score of dpERK with insulin: higher = more active ERK per ERK-YFP after insulin", "note": "In all, the deposit lists about 23,000 reagents; shown is a random part of those with a known target gene and a result. 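Extra replicates exist only for a retested subset of genes; insulin dose and duration not given; both raised and lowered dpERK matter.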 Reagents against one gene are numbered here. Further read-outs or replicates are left out here. The record does not give: the amount of reagent, the time to read-out."}
{"predicted target": "CG14294", "reagent no.": 1, "replicate 1, z-score of dpERK with insulin": 1.07, "replicate 2, z-score of dpERK with insulin": -0.5}
{"predicted target": "VhaPPA1-2", "reagent no.": 1, "replicate 1, z-score of dpERK with insulin": 0.97, "replicate 2, z-score of dpERK with insulin": 0.66}
{"predicted target": "CG1309", "reagent no.": 1, "replicate 1, z-score of dpERK with insulin": -0.14, "replicate 2, z-score of dpERK with insulin": -0.31}
{"predicted target": "5-HT7", "reagent no.": 1, "replicate 1, z-score of dpERK with insulin": -0.14, "replicate 2, z-score of dpERK with insulin": 0.84}
{"predicted target": "CG32243", "reagent no.": 1, "replicate 1, z-score of dpERK with insulin": 0.2, "replicate 2, z-score of dpERK with insulin": 0.48}
{"predicted target": "CG30376", "reagent no.": 1, "replicate 1, z-score of dpERK with insulin": 0.51, "replicate 2, z-score of dpERK with insulin": 0.09}
{"predicted target": "Rcd-1", "reagent no.": 1, "replicate 1, z-score of dpERK with insulin": 2.65, "replicate 2, z-score of dpERK with insulin": 3.23}
{"predicted target": "Alg7", "reagent no.": 1, "replicate 1, z-score of dpERK with insulin": -0.43, "replicate 2, z-score of dpERK with insulin": 1.27}
{"predicted target": "Alg7", "reagent no.": 2, "replicate 1, z-score of dpERK with insulin": -0.37, "replicate 2, z-score of dpERK with insulin": 0.22}
{"predicted target": "L2HGDH", "reagent no.": 1, "replicate 1, z-score of dpERK with insulin": 0.06, "replicate 2, z-score of dpERK with insulin": 0.32}
{"predicted target": "aft", "reagent no.": 1, "replicate 1, z-score of dpERK with insulin": 0.31, "replicate 2, z-score of dpERK with insulin": -0.02}
{"predicted target": "GstT2", "reagent no.": 1, "replicate 1, z-score of dpERK with insulin": 0.22, "replicate 2, z-score of dpERK with insulin": 0.19}
{"predicted target": "fidipidine", "reagent no.": 1, "replicate 1, z-score of dpERK with insulin": -1.97, "replicate 2, z-score of dpERK with insulin": -1.89}
{"predicted target": "CG30122", "reagent no.": 1, "replicate 1, z-score of dpERK with insulin": 0.73, "replicate 2, z-score of dpERK with insulin": 0.88}
{"predicted target": "CG30122", "reagent no.": 2, "replicate 1, z-score of dpERK with insulin": 0.17, "replicate 2, z-score of dpERK with insulin": 0.07}
{"predicted target": "dpr8", "reagent no.": 1, "replicate 1, z-score of dpERK with insulin": 1.06, "replicate 2, z-score of dpERK with insulin": -0.06}
{"predicted target": "dpr8", "reagent no.": 2, "replicate 1, z-score of dpERK with insulin": 0.62, "replicate 2, z-score of dpERK with insulin": -0.03}
{"predicted target": "dpr8", "reagent no.": 3, "replicate 1, z-score of dpERK with insulin": 0.11, "replicate 2, z-score of dpERK with insulin": -0.12}
{"predicted target": "dpr8", "reagent no.": 4, "replicate 1, z-score of dpERK with insulin": -0.4, "replicate 2, z-score of dpERK with insulin": 0.02}
{"predicted target": "CG7304", "reagent no.": 1, "replicate 1, z-score of dpERK with insulin": 0.62, "replicate 2, z-score of dpERK with insulin": -0.08}
{"predicted target": "Git", "reagent no.": 1, "replicate 1, z-score of dpERK with insulin": -0.38, "replicate 2, z-score of dpERK with insulin": -0.08}
{"predicted target": "Pez", "reagent no.": 1, "replicate 1, z-score of dpERK with insulin": 0.35, "replicate 2, z-score of dpERK with insulin": 0.21}
{"predicted target": "Amt", "reagent no.": 1, "replicate 1, z-score of dpERK with insulin": 0.24, "replicate 2, z-score of dpERK with insulin": -0.78}
{"predicted target": "Vsp37A", "reagent no.": 1, "replicate 1, z-score of dpERK with insulin": 2.28, "replicate 2, z-score of dpERK with insulin": 0.42}
{"predicted target": "CG30075", "reagent no.": 1, "replicate 1, z-score of dpERK with insulin": 0.38, "replicate 2, z-score of dpERK with insulin": 0.3}
{"predicted target": "alphaTub67C", "reagent no.": 1, "replicate 1, z-score of dpERK with insulin": -1.99, "replicate 2, z-score of dpERK with insulin": -1.56}
{"predicted target": "CG14342", "reagent no.": 1, "replicate 1, z-score of dpERK with insulin": -4.93, "replicate 2, z-score of dpERK with insulin": -4.18}
{"predicted target": "Sec31", "reagent no.": 1, "replicate 1, z-score of dpERK with insulin": 0.45, "replicate 2, z-score of dpERK with insulin": -0.07}
{"predicted target": "comr", "reagent no.": 1, "replicate 1, z-score of dpERK with insulin": 0.24, "replicate 2, z-score of dpERK with insulin": 0.32}
{"predicted target": "CG32037", "reagent no.": 1, "replicate 1, z-score of dpERK with insulin": 1.08, "replicate 2, z-score of dpERK with insulin": 0.27}
{"predicted target": "alphaSnap", "reagent no.": 1, "replicate 1, z-score of dpERK with insulin": 1, "replicate 2, z-score of dpERK with insulin": 2.23}

Copied from the list.
Under “replicate 2, z-score of dpERK with insulin”, Alg7 #2 is entered as 0.22
dpr8 #4, replicate 2, z-score of dpERK with insulin: 0.02
Result for aft under “replicate 1, z-score of dpERK with insulin”: 0.31
CG32243, replicate 2, z-score of dpERK with insulin → 0.48
5-HT7, replicate 2, z-score of dpERK with insulin → 0.84
